Laboratory results from PubChem BioAssay AID1259354 (Paczesny and Yang Labs, IUPUI and University of Michigan, 2018).
Several values for one entry are separate records, joined by “and”; a condition that tells them apart may be missing. Identical values can stand only once. Out of some 78,000 compounds screened, about 1,800 (2.3%) were called active. Inconclusive means that the source gave no clear call. Such entries were picked first, then a sample of the others. No stated cut-off is given here; in the data, active means inhibition above about 30%; inconclusive means mostly about 10% to 28%; inactive means weaker than that.

Sequences of proteins named here, by UniProt entry; tags and fusion partners are left off. A change or cut given only in a name is not applied to a line headed by its entry.
UniProt Q01638: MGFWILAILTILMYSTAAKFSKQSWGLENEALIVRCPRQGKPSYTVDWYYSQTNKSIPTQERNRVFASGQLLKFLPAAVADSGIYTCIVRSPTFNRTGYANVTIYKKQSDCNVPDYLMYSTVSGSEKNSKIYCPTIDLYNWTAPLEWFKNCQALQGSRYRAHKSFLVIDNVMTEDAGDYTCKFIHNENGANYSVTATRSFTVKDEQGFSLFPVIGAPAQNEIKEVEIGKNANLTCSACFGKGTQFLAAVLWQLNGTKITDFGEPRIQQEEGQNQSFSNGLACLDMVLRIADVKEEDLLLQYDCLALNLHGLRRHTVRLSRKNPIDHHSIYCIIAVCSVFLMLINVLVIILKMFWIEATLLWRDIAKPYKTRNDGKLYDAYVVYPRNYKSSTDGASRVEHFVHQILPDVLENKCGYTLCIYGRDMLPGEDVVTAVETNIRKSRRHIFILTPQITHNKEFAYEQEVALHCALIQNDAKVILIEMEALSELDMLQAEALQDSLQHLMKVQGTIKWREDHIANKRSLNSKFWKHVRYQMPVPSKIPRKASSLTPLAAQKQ

Target: Interleukin-1 receptor-like 1 (Homo sapiens) (UniProt Q01638)
Test: inhibitors of human ST2 (IL1RL1) binding to IL-33, primary screen, biochemical, AlphaLISA (AID 1259354)
Settings: AlphaLISA ST2-Fc/biotin-IL-33 interaction, 1 h; at 17 µM, stronger effect = higher value

SMILES	inhibition
Cc1ccc(CNC(C)Cc2ccccc2)o1 (stereo not drawn)	inconclusive: 10%
Cc1cc(C)c(CNc2cc(C(C)C)nc(C)n2)cn1	inconclusive: 13%
CC(Cc1cccc(F)c1)NCCc1nc2ccccc2[nH]1 (stereo not drawn)	inconclusive: 13%
CCC(CC)c1cc([C@H]2CN3CC[C@H]2C[C@@H]3CNC(=O)Nc2ccc(C(C)=O)cc2)nc(-c2ccncc2)n1	inactive
O=C1CC(=O)N(Cc2ccc(F)cc2)C(=O)N1	inconclusive: 11%
COc1ccc(S(=O)(=O)N2C[C@@H]3C[C@H](C2)c2c(-c4cccs4)ccc(=O)n2C3)cc1	inconclusive: 16%
CCN1CCN(Cc2cccs2)CC1	inconclusive: 13%
CC(=O)O[C@@H]1[C@H]2CC[C@H]3[C@@](C)(O)[C@@H]4C[C@H](O)C(C)(C)[C@@]4(O)[C@H](O)C[C@@]13C[C@@]2(C)O	inconclusive: 25%
O=C(CCCc1cn[nH]c1)N1C[C@@H](c2ccccc2)[C@@H]2[C@H]1C1CCN2CC1	inconclusive: 15%
O[C@H]1C[C@@H]2CN(Cc3cnc(C4CCCCC4)nc3)C[C@@H]2C[C@@H]1O	inactive
COc1ccc(C(=O)N2C[C@@H]3C[C@H](C2)c2c(NC(=O)c4ccco4)ccc(=O)n2C3)cc1	inconclusive: 16%
COc1ccc(N2CCN(Cc3ccc(Cl)cc3)CC2)cc1	active: 44%
O=[N+]([O-])c1ccccc1CN1CCN(c2ccc(F)cc2)CC1	inconclusive: 23%
O=C(Nc1ccc2n(c1=O)C[C@H]1C[C@@H]2CN(C(=O)Cc2cccs2)C1)c1ccc(F)cc1	inconclusive: 17%
COc1ccc(C2C(C(=O)N3CCC4(CC3)OCCO4)CC(=O)N2c2ccc(OC)cc2)cc1 (stereo not drawn)	inconclusive: 19% and inconclusive: 14%
CCCNC(=O)OC[C@H]1C[C@@H]2CCN1C[C@@H]2c1cc(-c2ccccc2OC)nc(C)n1	inconclusive: 12%
COc1ccccc1N1CCN(C(=O)[C@H]2CN3CCC2C[C@@H]3Cn2cc(-c3cccc(N)c3)nn2)CC1 (stereo partly drawn)	inconclusive: 20%
O=C(c1ccco1)N1C[C@@H]2C[C@H](C1)c1ccc(-c3ccc(OC(F)(F)F)cc3)c(=O)n1C2	inconclusive: 20%
CC(C)NC(=O)CN1CCCN(Cc2cccc(Cl)c2)S1(=O)=O	inconclusive: 15%
CCOC(=O)Cc1csc(NC(=O)c2cccn(Cc3cccc(Cl)c3)c2=O)n1	inactive
CCC1(C)CC(CCNCc2ccccc2)(c2ccccc2OC)CCO1 (stereo not drawn)	inconclusive: 26%
Cc1ccc(S(=O)(=O)Nc2ccc3n(c2=O)C[C@H]2C[C@@H]3CN(c3ncccn3)C2)cc1	inactive
Cc1ccnc(CC(C)N(C)CCn2c(=O)oc3ccccc32)c1 (stereo not drawn)	inconclusive: 10%
CC(=O)Nc1ccc(-c2ccc(=O)n3c2[C@@H]2C[C@@H](CN(C(=O)C4CCCCC4)C2)C3)cc1	inconclusive: 14%
Fc1ccc(N2CCN(Cc3cc(F)ccc3F)CC2)cc1	inconclusive: 10%
COc1ccc(-c2cc([C@H]3CN4CC[C@H]3C[C@@H]4CNC(=O)c3cc(OC)c(OC)c(OC)c3)n(C)n2)cc1OC	inconclusive: 15%
CC1CCC(C(=O)NC(C(=O)N2CCC3(CC2)OCCO3)C(C)C)CC1 (stereo not drawn)	inconclusive: 12%

SMILES	inhibition
O=C(NCc1ccccc1)[C@H]1CN2CCC1C[C@@H]2Cn1cc(COc2ccccc2)nn1 (stereo partly drawn)	inconclusive: 15%
COCCNC(=S)NC[C@H]1C[C@@H]2CCN1C[C@@H]2CN1CCN(c2ncccn2)CC1	inactive
CCCC[n+]1cc(N=C([O-])c2ccccc2Br)on1	inconclusive: 15%
CC(Cc1ccccc1)NC(=O)Cc1ccc(N)cc1 (stereo not drawn)	inconclusive: 16%
CC(=O)N1CCN(C[C@H]2CN3CC[C@H]2C[C@@H]3CNC(=S)Nc2ccccc2)CC1	inactive
Cc1ccc(Cl)cc1N(C)C(=O)C1c2ccccc2C(=O)N2CCCCC12 (stereo not drawn)	inactive
CSc1ccc(CN2CCN(c3cc(C)ccc3C)CC2)cc1	inconclusive: 17%
CCN(CC)C[C@H]1CN2CC[C@H]1C[C@@H]2CNC(=O)Nc1ccsc1	inactive
O=S(=O)(NC[C@H]1C[C@@H]2CCN1C[C@@H]2CN1CCN(c2ncccn2)CC1)c1ccc(Cl)cc1	inconclusive: 11%
CCN1CCN(Cc2ccc(N(C)C)cc2)CC1	active: 32%
CCOc1ccccc1N1CCN(Cc2ccc(F)c(Br)c2)CC1	inconclusive: 18%
CCC(CC)c1cc([C@H]2CN3CC[C@H]2C[C@@H]3CNC(=O)Nc2cccc(C#N)c2)nc(-c2ccncc2)n1	inconclusive: 19%
O=C(CN1CCCC1=O)Nc1ccccc1	inconclusive: 16%
Oc1ccc2c3c1O[C@H]1c4oc5ccccc5c4C[C@@]4(O)C(C2)N(CC2CC2)CCC314 (stereo partly drawn)	inconclusive: 17%
CN(C)C(=O)[C@H]1CN2CC[C@H]1C[C@@H]2Cn1cc(CC2CCCCC2)nn1	inconclusive: 14%
CC(C)(C)C(=O)N1C[C@@H]2C[C@H](C1)c1ccc(-c3cccc(C(F)(F)F)c3)c(=O)n1C2	inactive
CCCCc1nc2ccccc2c(=O)n1-c1ccccc1[N+](=O)[O-]	inconclusive: 20%
O=C(c1ccn2nnnc2c1)N1CCC2(CCCNC2)C1 (stereo not drawn)	inconclusive: 11%
O=C(NC1CCCCC1)N1C[C@@H]2C[C@H](C1)c1ccc(-c3cccnc3)c(=O)n1C2	inconclusive: 12%
C=C[C@H]1CN2CC[C@H]1C[C@@H]2CNCc1ccc(-c2ccccc2)cc1	inconclusive: 10%
CC(C)(C)CC(=O)N1C[C@@H]2C[C@H](C1)c1ccc(NS(=O)(=O)c3cccs3)c(=O)n1C2	inactive
O=C(NCc1ccsc1)c1cn(CC2CCCO2)cc(C(=O)NC2CCCCCCC2)c1=O (stereo not drawn)	inactive
CCCCc1cn(C[C@H]2C[C@@H]3CCN2C[C@@H]3C(=O)NC(C)C)nn1	inconclusive: 17%
CCC1(CC)C(=O)NC(=O)N(Cc2ccccc2)C1=O	inactive
CCOc1ccccc1N1CCN(Cc2ccccc2)CC1	inconclusive: 17%
c1cc2c(c(-c3ccc4nc[nH]c4c3)c1)CCNC2	inconclusive: 10%
